# Laboratory results from PubChem BioAssay AID651640 (Broad Institute, 2012).
# Hit rate of the full screen: of about 350,000 compounds, about 6,000 (1.7%) were called active. Inconclusive means that the source gave no clear call. Such entries were picked first, then a sample of the others. Cut-off read from the data, not from the text of the source: active = CPE inhibition above about 20% (passing the limit was not always enough); inconclusive = no clear call, values can overlap the other calls; tested in BHK-21 cells. The source holds several records for some structures; these can differ, active in one and inactive in another.
# Experiment: protection of cells from dengue 2 killing – plate reader, single concentration, primary screen (AID 651640);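 note: 0% = median of neutral control wells and 100% = median of positive control wells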
# Settings: DENV2-infected cells, cytopathic effect rescue, at 9.99 µM, active compounds read high
row,SMILES,CPE inhibition
1,CCCOc1ccc(N2CC(C(=O)Nc3ccccc3OC)CC2=O)cc1 (configuration not stated),inconclusive: 23.8%
2,C[C@@H]1CN([C@H](C)CO)C(=O)c2cc(NC(=O)c3ccncc3)ccc2O[C@@H](C)CCCCO[C@H]1CN(C)Cc1ccc(Cl)c(Cl)c1,active: 85.4%
3,Cc1ccc(OCCOCCn2cnc3ccccc3c2=O)c([N+](=O)[O-])c1,inactive: -7.68%
4,O=C(c1ccc(F)cc1)N1CC(=O)N2[C@H](CO)[C@@H](c3ccc(C#Cc4ccc(F)cc4)cc3)[C@H]2C1,inconclusive: 26.8%
5,C[C@@H]1CN([C@@H](C)CO)C(=O)c2cc(NS(=O)(=O)c3cn(C)cn3)ccc2O[C@@H](C)CCCCO[C@H]1CN(C)CC1CCCCC1,inconclusive: 38%
6,C[C@@H]1CN([C@@H](C)CO)C(=O)c2cccc(NS(=O)(=O)c3ccc(Cl)cc3)c2O[C@@H]1CN(C)Cc1ccncc1,inconclusive: 36.3%
7,O=C(CSc1nnc(NC(=O)Cc2ccccc2)s1)NCC1CCCO1 (configuration not stated),inconclusive: 21.4%
8,CN(C)C(=O)c1ccc(-c2ccc([C@H]3[C@@H](C#N)N(C(=O)C4CCCCC4)[C@H]3CO)cc2)cc1,inconclusive: 20.9%
9,C/C=C/c1ccccc1[C@H]1[C@H](C#N)N(C(=O)CN2CCOCC2)[C@H]1CO,inactive: -6.98%
10,CCOc1ncccc1C(=O)NNC(=O)c1cccc(S(=O)(=O)Nc2ccccc2OC)c1,active: 23.7%
11,COc1ccccc1CNCC(=O)Nc1ccc(N(C)C)cc1,inconclusive: 22.8%
12,Cc1ccc(-c2ccc(C3[C@H]4CNC[C@@H]3N4C(=O)Nc3ccc(F)cc3)cc2)cc1 (some centres not stated),inconclusive: 38%
13,Fc1ccccc1C1c2[nH]c3ccccc3c2CCN1Cc1ccoc1 (configuration not stated),inconclusive: 31.8%
14,COCCNC(=S)N1CCN(S(=O)(=O)c2ccc(Cl)s2)CC1,active: 44.7%
15,O=C(NC1CCCCCCC1)c1ccc(Br)o1,inconclusive: 32%
16,Cc1noc(C)c1NC(=O)Nc1cccc2c1O[C@H](CN(C)Cc1ccc(C(=O)O)cc1)[C@H](C)CN([C@H](C)CO)C2=O,inactive: -1.12%
17,CNC[C@H]1Oc2ccc(NC(=O)Nc3ccc4c(c3)OCO4)cc2C(=O)N([C@H](C)CO)C[C@@H]1C,inconclusive: 41.8%
18,COc1ccc(NC(=S)NC(=O)/C=C/c2ccccc2)cc1,active: 37.8%
19,O=C(CN1CCN(S(=O)(=O)c2ccc(Cl)cc2)CC1)NC1CCCC1,inconclusive: 22.1%
20,C=CCNC(=S)NC(CC(=O)OC)c1ccc2c(c1)OCO2 (configuration not stated),inconclusive: 24.3%
21,CN1CCc2c(sc(/N=C/c3c[nH]c4ccccc34)c2C(N)=O)C1,inconclusive: 42.5%
22,COc1ccc(CC(=O)N(C)Cc2cccc(OC)c2OC)cc1S(=O)(=O)N1CCOCC1,inconclusive: 20.1%
23,COc1ccc(C(C)=O)cc1CSc1nnc(Nc2ccc(C)cc2C)s1,inactive: -6.28%
24,C[C@@H]1CN([C@@H](C)CO)C(=O)c2cc(NC(=O)Nc3ccc4c(c3)OCO4)ccc2O[C@@H](C)CCCCO[C@@H]1CN(C)C(=O)Cc1ccccc1,inconclusive: 56%

# Looked up by structure from the entries so far (3):
row,SMILES,CPE inhibition
19,O=C(CN1CCN(S(=O)(=O)c2ccc(Cl)cc2)CC1)NC1CCCC1,inconclusive: 22.1%
20,C=CCNC(=S)NC(CC(=O)OC)c1ccc2c(c1)OCO2 (configuration not stated),inconclusive: 24.3%
9,C/C=C/c1ccccc1[C@H]1[C@H](C#N)N(C(=O)CN2CCOCC2)[C@H]1CO,inactive: -6.98%

# Continued:

row,SMILES,CPE inhibition
1,O=C(OCC(=O)N1CCOCC1)c1cccc(S(=O)(=O)N2CCCc3ccccc32)c1,inconclusive: 28.1%
2,COc1ccc(-c2nn(-c3ccccc3)cc2C(=O)O)cc1OC,inactive: 4.76%
3,Nc1nc(NCc2ccccc2)n(-c2ccccc2)n1,inconclusive: 27.2%
4,COc1ccc2c3c([nH]c2c1)[C@H](CO)N(Cc1ccccc1)CC31CCN(C(=O)Nc2cccc(F)c2)CC1,inactive: -9.79%
5,COc1ccc(NC(=O)N(C)C[C@H]2Oc3ccc(NC(=O)Cc4ccccc4)cc3C(=O)N([C@@H](C)CO)C[C@H]2C)cc1,inactive: 13.4%
6,Cc1noc(C)c1NC(=O)N(C)C[C@H]1OCCCC[C@@H](C)Oc2ccc(NS(=O)(=O)c3ccc(Cl)cc3)cc2C(=O)N([C@H](C)CO)C[C@H]1C,inconclusive: 34.4%
7,CCN1CCN(S(=O)(=O)c2ccc(Cl)c(C(=O)NC(C)c3ccccc3Cl)c2)CC1 (configuration not stated),inconclusive: 40.5%
8,C/C=C/c1cnc2c(c1)C(=O)N([C@H](C)CO)C[C@H](C)[C@H](CN(C)C(=O)c1cnccn1)O2,inactive: -0.777%
9,N#CC1=C(N)Oc2cc(N)ccc2C1c1ccccc1Cl (configuration not stated),inactive: 6.19%
10,COc1cccc(S(=O)(=O)N(C)C[C@@H]2OCc3cnnn3CCCC(=O)N([C@@H](C)CO)C[C@@H]2C)c1,active: 20.1%
11,Cc1ccc(NC(=O)COc2ccc(Cl)cc2Cl)cc1S(=O)(=O)N1CCOCC1,inconclusive: 26.1%
12,Cc1cc(C(=O)COc2ccc3ccc(=O)oc3c2)c(C)n1C,inconclusive: 23.3%
13,COc1ccc(NC(=O)Nc2ccc3c(c2)CC(=O)N([C@H](C)CO)C[C@@H](C)[C@H](CN(C)Cc2ccc(C(=O)Nc4ccccc4N)cc2)O3)cc1,active: 55.4%
14,O=C(CN1C(=O)N/C(=C\c2ccccc2OCc2ccc(C(=O)O)cc2)C1=O)Nc1ccccc1F,inconclusive: 22.3%
15,Cc1ccccc1C(=O)N1CCC2CC1c1cc(-c3ccc(F)cc3)ccc12 (configuration not stated),inconclusive: 20.8%
16,COc1cccc(S(=O)(=O)N[C@H]2CC[C@H](CCn3cc(-c4ccccn4)nn3)O[C@@H]2CO)c1,inconclusive: 65.5%
17,COC(=O)Nc1nnc(/C=C/c2ccccc2)s1,inconclusive: 24%
18,Cc1c(Cl)cnc(NC(=O)COC(=O)Cc2coc3ccc4ccccc4c23)c1Cl,active: 86%
19,COC(=O)c1cc(C)nc(Nc2nc(C(N)Cc3ccc(F)cc3)cs2)n1 (configuration not stated),inconclusive: 37.5%
20,CN(C)S(=O)(=O)c1cccc(NC(=O)c2ccc(N3CCOCC3)c([N+](=O)[O-])c2)c1,inconclusive: 47.3%
21,C[C@@H]1CN([C@@H](C)CO)C(=O)c2cccc(N(C)C)c2O[C@H]1CN(C)C(=O)Nc1ccccc1,active: 30.3%
22,CO[C@@H]1CN(C)C(=O)c2cc(NS(=O)(=O)c3ccc(C)cc3)ccc2OC[C@H](C)NC[C@@H]1C,inactive: 11.7%
23,C[C@H](CO)N1C[C@H](C)[C@@H](CN(C)Cc2ccncc2)Oc2c(cccc2N(C)C)C1=O,inconclusive: 71.6%
24,COc1cccc(CNC(=O)C[C@H]2CC[C@@H](NC(=O)C3CCC3)[C@H](CO)O2)c1,active: 35.5%

row,SMILES,CPE inhibition
1,O=C(c1ccccc1)N1CC(=O)N2[C@H](CO)[C@H](c3ccc(C#CCC4CCCC4)cc3)[C@@H]2C1,active: 20.9%
2,Clc1ccccc1C1CC(c2ccccc2)=Nc2ccccc2N1 (configuration not stated),inconclusive: 38.8%
3,COC(=O)c1c(N)[nH]c(C(=O)c2ccccc2)c1-c1ccc(Cl)cc1,inconclusive: 23.8%
4,CO[C@H]1CN(C)C(=O)c2cccc(C#N)c2OCC[C@H]2CC[C@@H](OC)[C@H](CN(C)C(=O)[C@@H]1C)O2,inactive: 9.16%
5,Cn1cccc1-c1cc(C(=O)N/N=C/C=C/c2ccccc2)[nH]n1,inactive: 2.46%
6,Cc1cc(Br)c(NC(=O)C(C)Sc2nnnn2C)c(Br)c1 (configuration not stated),inactive: 10.3%
7,C[C@H](CO)N1C[C@H](C)[C@H](CN(C)C(=O)Nc2ccc(F)cc2)Oc2c(NC(=O)c3nc4ccccc4s3)cccc2C1=O,active: 30.5%
8,CN(C(=O)CNC(=O)c1ccc(Br)o1)C1CCCCC1,inconclusive: 22.7%
9,COc1ccc(S(=O)(=O)Nc2ccc3c(c2)CC(=O)N([C@@H](C)CO)C[C@@H](C)[C@@H](CN(C)Cc2ccc(-c4ccccc4)cc2)O3)cc1,inconclusive: 31.4%
10,O=C(CCNC(=O)Cn1ccc2ccccc2c1=O)NCC1CCCC1c1ccccc1 (configuration not stated),inconclusive: 42.7%
11,O=C(C1CC1)N1[C@@H](CO)[C@@H](c2ccccc2)C12CN(Cc1cncnc1)C2,inactive: -0.468%
12,C[C@@H]1CN([C@H](C)CO)C(=O)c2cc(NC(=O)Nc3cccc4ccccc34)ccc2O[C@H]1CN(C)Cc1ccncc1,inconclusive: 33.2%
13,CN1C[C@H]2[C@@H](c3ccccc31)[C@H](CO)N2C(=O)c1ccccn1,active: 28%
14,Cc1ccc(C(=O)NCC(=O)Nc2ccc(S(=O)(=O)Nc3cc(C)nc(C)n3)cc2)cc1,active: 55.8%
15,CCC(=O)c1ccc(OCC(=O)NCc2ccccc2CN2CCCC2)cc1,inconclusive: 44.4%
16,COc1ccc(NC(=O)Nc2ccc3c(c2)C(=O)N([C@H](C)CO)C[C@H](C)[C@@H](CN(C)Cc2ccccc2)O3)cc1,active: 42.8%
17,C[C@H](CO)N1C[C@H](C)[C@H](CN(C)C(=O)Nc2ccc(C(F)(F)F)cc2)Oc2c(NC(=O)CCCCCC(=O)Nc3ccccc3N)cccc2C1=O,active: 34.8%
18,CCCNC(=O)N1CC2(CN(S(=O)(=O)CC)C2)c2c([nH]c3cc(OC)ccc23)[C@H]1CO,inactive: -2.12%
19,Clc1cccc(-c2csc(Nc3cccnc3)n2)c1,inconclusive: 30.1%
20,C[C@H](CO)N1C[C@H](C)[C@H](CN(C)Cc2ccc(C(=O)Nc3ccccc3N)cc2)Oc2ccc(NC(=O)C3CC3)cc2CC1=O,inactive: 6.64%
21,Cn1cnc(S(=O)(=O)N2CC[C@@H]3[C@@H](CO)Nc4ccc(C#Cc5ccccc5F)cc4[C@@H]32)c1,inconclusive: 26.3%
22,C[C@@H]1CN([C@H](C)CO)C(=O)c2cc(NC(=O)Cc3ccccc3)ccc2O[C@@H](C)CCCCO[C@H]1CN(C)S(C)(=O)=O,inconclusive: 97.7%
23,O=S(=O)(c1cccc(Br)c1)N1CCN(C(=S)NCC2CCCO2)CC1 (configuration not stated),active: 67.7%
24,COc1ccc(CN2CCN(Cc3ccc(CO)o3)CC2CCO)cc1C (configuration not stated),inconclusive: 31%

# Sorted by formula weight (rising): part of the list above
row,SMILES,CPE inhibition
8,CN(C(=O)CNC(=O)c1ccc(Br)o1)C1CCCCC1,inconclusive: 22.7%
18,CCCNC(=O)N1CC2(CN(S(=O)(=O)CC)C2)c2c([nH]c3cc(OC)ccc23)[C@H]1CO,inactive: -2.12%
14,Cc1ccc(C(=O)NCC(=O)Nc2ccc(S(=O)(=O)Nc3cc(C)nc(C)n3)cc2)cc1,active: 55.8%
